Here are results for two molecules from patent US8465780B2, “Borate micro emulsion and method for making the same” (Nisus Corporation, priority 2006, dated 2013).

The conditions of series [1]: 0.25 weight % solution, two weeks.
For series [2] the following is noted: 0.05 weight % borate, lithium hypochlorite, bright sunlight.

Like-named read-outs stand apart in the source and are kept apart here.

As to `OB(O)O` [boric acid, reference compound], in series [1], the “appearance of solution after nail exposure” value was “turned brown” and the “corrosion of steel nail” value was “significantly corroded”.

For the molecule `O.O.O.O.O=BOB1OB(OB=O)OB2OB([O-])OB([O-])OB(O1)O2.[Na+].[Na+]` [disodium octaborate tetrahydrate], the free chlorine concentration in series [2] (0 hr) is recorded as 10 ppm; in series [2] (1.5 hr), 1.0 ppm; in series [2] (2.5 hr) it was 0.5 ppm. Also, the “appearance of solution after nail exposure” value in series [1] was “clear and free of corrosion by-products”. The “corrosion of steel nail” value in series [1] was “free of significant corrosion”.
